Results on one compound are retold here after US6368552B1, “Water treating agent and water treating method” (Kurita Water Industries Ltd., priority 1999, dated 2002).

A short description of this series: Autoclave test of transference of the chemical from liquid water phase to steam phase at 200° C. (gas chromatography). It is filed as physicochemical. Particulars: pH 11.5. On the procedure: Each 50 ml of samples were taken from the steam phase and from the liquid phase directly after the temperature had reached at 200° C., which were analyzed for the concentration of the chemical on a gas chromatography. The ratio of the concentration of chemical in the steam phase versus the concentration of chemical in the liquid phase was calculated.

`CCCCCCCC1CCC(=O)O1` (centres unmarked) [Example 3, γ-undecalactone]: the “Conc. of chemical in steam” value is 34 µg/mL and the “Conc. of chemical in water” value worked out at 193 µg/mL.
